Assay [1] deals with T1, UBE2O, tagged, expressed from a plasmid (UniProt Q9C0C9).
T1 sequence: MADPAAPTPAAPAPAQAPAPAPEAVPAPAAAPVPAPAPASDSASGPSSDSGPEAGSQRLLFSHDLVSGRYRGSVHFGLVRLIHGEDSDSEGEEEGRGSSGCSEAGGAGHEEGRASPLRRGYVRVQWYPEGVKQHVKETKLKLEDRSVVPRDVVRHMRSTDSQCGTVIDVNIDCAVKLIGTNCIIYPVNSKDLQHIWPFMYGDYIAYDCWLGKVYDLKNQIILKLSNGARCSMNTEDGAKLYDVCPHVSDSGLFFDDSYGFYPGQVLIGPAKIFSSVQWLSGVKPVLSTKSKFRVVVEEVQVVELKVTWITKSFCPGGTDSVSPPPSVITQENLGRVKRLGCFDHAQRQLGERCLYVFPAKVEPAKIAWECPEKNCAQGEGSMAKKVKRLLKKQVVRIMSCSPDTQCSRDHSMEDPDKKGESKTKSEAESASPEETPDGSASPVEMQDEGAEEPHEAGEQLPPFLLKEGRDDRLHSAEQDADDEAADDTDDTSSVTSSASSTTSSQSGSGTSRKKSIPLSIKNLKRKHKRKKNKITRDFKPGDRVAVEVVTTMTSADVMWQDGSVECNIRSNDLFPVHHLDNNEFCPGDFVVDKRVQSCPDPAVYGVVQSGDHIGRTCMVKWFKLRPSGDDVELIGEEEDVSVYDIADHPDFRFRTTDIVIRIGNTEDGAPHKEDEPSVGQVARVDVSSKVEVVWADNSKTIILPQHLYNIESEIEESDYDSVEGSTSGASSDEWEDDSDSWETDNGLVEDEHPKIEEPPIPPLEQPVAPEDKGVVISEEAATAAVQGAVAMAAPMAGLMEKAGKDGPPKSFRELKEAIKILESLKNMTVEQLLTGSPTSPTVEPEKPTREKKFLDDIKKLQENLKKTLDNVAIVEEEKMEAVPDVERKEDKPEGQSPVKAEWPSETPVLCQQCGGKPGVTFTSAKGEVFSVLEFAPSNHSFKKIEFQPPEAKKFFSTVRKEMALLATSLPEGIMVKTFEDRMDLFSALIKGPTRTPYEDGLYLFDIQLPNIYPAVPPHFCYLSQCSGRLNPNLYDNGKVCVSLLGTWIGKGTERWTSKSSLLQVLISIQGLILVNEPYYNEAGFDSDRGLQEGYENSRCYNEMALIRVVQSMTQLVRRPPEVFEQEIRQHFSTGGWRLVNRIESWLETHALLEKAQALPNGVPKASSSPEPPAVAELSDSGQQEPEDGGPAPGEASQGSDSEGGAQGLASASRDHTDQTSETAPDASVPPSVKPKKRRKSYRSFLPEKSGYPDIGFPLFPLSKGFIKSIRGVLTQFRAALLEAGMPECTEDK
Put plainly: co-IP; truncation mutants of IFIT3 and UBE2O; tagged plasmids transfected into 293 T cells; IP with anti-HA and anti-Myc antibodies, IB with the corresponding antibodies.

Assay [2] concerns the target D2 structural domain of UBE2O (truncation mutant). Described as above.

Results are given in words; binding and its absence hold for the method and conditions named. Binding seen in cells or lysates may run through a third protein. Binding can be weak; no strength is given. Tags and fused reporters may be left off the sequences shown.

Turning to “N-terminus of IFIT3 (truncation mutant) (domain or fragment)”, the binding entry in assay [1] was “binds”.

B1: IFIT3, tagged, expressed from a plasmid (protein, UniProt O14879 1-490)
chain: MSEVTKNSLEKILPQLKCHFTWNLFKEDSVSRDLEDRVCNQIEFLNTEFKATMYNLLAYIKHLDGNNEAALECLRQAEELIQQEHADQAEIRSLVTWGNYAWVYYHLGRLSDAQIYVDKVKQTCKKFSNPYSIEYSELDCEEGWTQLKCGRNERAKVCFEKALEEKPNNPEFSSGLAIAMYHLDNHPEKQFSTDVLKQAIELSPDNQYVKVLLGLKLQKMNKEAEGEQFVEEALEKSPCQTDVLRSAAKFYRRKGDLDKAIELFQRVLESTPNNGYLYHQIGCCYKAKVRQMQNTGESEASGNKEMIEALKQYAMDYSNKALEKGLNPLNAYSDLAEFLETECYQTPFNKEVPDAEKQQSHQRYCNLQKYNGKSEDTAVQHGLEGLSISKKSTDKEEIKDQPQNVSENLLPQNAPNYWYLQGLIHKQNGDLLQAAKCYEKELGRLLRDAPSGIGSIFLSASELEDGSEEMGQGAVSSSPRELLSNSEQLN
B1: in assay [2], the binding result is recorded as “binds”.

(Values after paper PMC10740027.)
